# No constants are given. Whether binding was seen depends on the method and setting. In cells and extracts the contact can be indirect. Some binding calls cover weakened binding; strength is not graded here.
# The chains behind the UniProt entries cited, without tags or fusion partners.
# UniProt Q00534: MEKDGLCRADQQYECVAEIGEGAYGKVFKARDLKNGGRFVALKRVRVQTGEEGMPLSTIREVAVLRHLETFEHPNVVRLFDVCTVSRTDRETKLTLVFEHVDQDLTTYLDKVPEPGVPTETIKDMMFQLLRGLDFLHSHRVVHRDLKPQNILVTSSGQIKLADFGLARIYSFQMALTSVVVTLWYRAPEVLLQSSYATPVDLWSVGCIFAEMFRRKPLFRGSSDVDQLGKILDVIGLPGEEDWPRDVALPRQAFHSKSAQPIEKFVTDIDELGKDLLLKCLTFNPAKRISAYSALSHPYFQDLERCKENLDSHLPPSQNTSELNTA
# UniProt P11802: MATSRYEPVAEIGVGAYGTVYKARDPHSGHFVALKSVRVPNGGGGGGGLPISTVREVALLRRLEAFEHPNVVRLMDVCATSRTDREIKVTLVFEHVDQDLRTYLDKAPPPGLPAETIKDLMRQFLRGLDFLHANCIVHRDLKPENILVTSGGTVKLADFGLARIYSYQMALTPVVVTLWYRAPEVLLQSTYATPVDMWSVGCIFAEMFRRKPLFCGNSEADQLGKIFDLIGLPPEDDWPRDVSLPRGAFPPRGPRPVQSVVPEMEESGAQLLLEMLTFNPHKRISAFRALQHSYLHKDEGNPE
# UniProt Q99497: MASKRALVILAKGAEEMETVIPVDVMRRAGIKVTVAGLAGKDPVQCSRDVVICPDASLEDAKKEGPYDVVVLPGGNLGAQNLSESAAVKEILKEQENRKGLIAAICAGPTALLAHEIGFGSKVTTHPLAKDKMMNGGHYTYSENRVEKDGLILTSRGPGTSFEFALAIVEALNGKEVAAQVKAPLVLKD
# How the values were obtained:
# [1] = target: CDK6 in pBiFC-VN173, with Flag (UniProt Q00534); experiment: split reporter; BiFC: DJ-1 and CDK plasmids with GFP tag co-transfected in 293 cells; green fluorescence from complementation
# [2] = target: CDK4 (cyclin-dependent kinase 4) in pBiFC-VN173, with Flag (UniProt P11802); experiment: as above
# [3] = target: CDK4 (cyclin-dependent kinase 4) in pBiFC-VN173, with Flag (UniProt P11802); experiment: co-IP; CDK plasmids (CDK1-8) with Flag tag transfected in 293 cells; DJ-1 detected in the precipitate
# [4] = target: Endogenous CDK4 of MG63 and U2OS cells (human (endogenous in MG63 and U2OS)) (UniProt P11802); experiment: co-IP; endogenous proteins in MG63 and U2OS lysates (RIPA); antibody or IgG at 4°C overnight, magnetic beads 2 h at room temperature, Western blot
substance,measurement,setting,value
"DJ-1 (PARK7), BiFC construct with GFP tag (from UniProt Q99497 1-189)",binding,[1],no binding
same,binding,[2],binds
DJ-1 found with Flag-tagged CDK4 in 293 cells (from UniProt Q99497 1-189),binding,[3],binds
Endogenous DJ-1 of MG63 and U2OS cells (from UniProt Q99497 1-189),binding,[4],binds
